Data source: PubChem BioAssay AID1259425 (University of Nebraska Medical Center, 2018)

Test: 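Compare each knockdown with KSR1 silencing using changes in marker transcripts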 (primary screen)
Cell system: HCT116 human colon cancer cells
Knock-down reagent: siRNA pool against human genes, 50 nM siRNA
Measured: 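mRNA of six signature genes measured together by branched-DNA assay after 50 nM siRNA pool, blank removed, divided by geometric mean of two housekeeping genes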
Reading the numbers: BNIP3L mRNA: higher = more BNIP3L transcript after knockdown; NDRG1 mRNA: higher = more NDRG1 transcript after knockdown
This is a random part of about 14,000 reagents. Further read-outs or replicates are left out here. Not stated in the record: the time to read-out.

gene | BNIP3L mRNA, set 1 | NDRG1 mRNA, set 1
TRIP6 | 0.0531 | 0.277
RGPD5 | 0.109 | 0.0199
TMEM14B | 0.0568 | 0.276
FAM86C1P | 0.119 | 0.162
NT5C1A | 0.389 | 0.236
H1-10 | 0.0907 | 0.298
CDK2AP1 | 0.0573 | 0.431
SARDH | 0.127 | 0.195
SH3BGR | 0.178 | 0.501
SNX22 | 0.166 | 1.25
ZNF41 | 0.232 | 0.221
CPNE1 | 0.14 | 0.14
BMP2 | 0.1 | 0.118
TMEM186 | 0.461 | 0.541
CDKN1C | 0.0895 | 0.183
MLXIP | 0.0579 | 0.0812
CRISP2 | 0.164 | 0.421
MZB1 | 0.115 | 0.149
CAMKV | 0.133 | 0.373
TRIP10 | 0.0769 | 0.112
CR2 | 0.0631 | 0.0885
FBXO42 | 0.122 | 0.113
TNFSF11 | 0.0581 | 0.111
SNAI2 | 0.0608 | 0.0767
CFAP46 | 0.0832 | 0.148
INTS15 | 0.112 | 0.245
TMEM120A | 0.234 | 0.471
ZIC5 | 0.0747 | 0.318
TTC33 | 0.0615 | 0.193
NUDT3 | 0.0616 | 0.224
ST8SIA4 | 0.0736 | 0.255
ABHD8 | 0.109 | 0.175
C22orf23 | 0.0553 | 0.183
CFHR2 | 0.0869 | 0.205
